Values from PubChem BioAssay AID602196 (INSERM, 2012).
This is a random part of about 23,000 deposited reagents. In the full data, 455 (2%) are marked active. 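Active includes both protection and sensitisation; some change values fall well beyond the stated -50 to +50 range.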 Entries without a mark were called inactive. Not all columns of the deposit are shown. Not stated in the record: the amount of reagent.

Aim: 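Genes whose knock-down alters cisplatin killing of lung cancer cells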
Cell system: human A549 lung cancer cells
Reagents: siRNA pair against human genes
Time to read-out: 48 h transfection before cisplatin; time from cisplatin to read-out not stated
Challenge: cisplatin at a dose killing half of control-siRNA cells; exact dose and duration not given
Measurement: 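Cisplatin cell death as a shift from the 50% death seen with control siRNA; siRNAs toxic or growth-blocking alone scored 0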
Reading the numbers: two-siRNA summed score (-2 to +2): higher = both siRNAs protect from cisplatin killing; -2 means both sensitise; mean protection from cisplatin (shift in death): higher = protection from cisplatin killing
Call rule: 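siRNAs harmful alone (LDH or WST-1) get 0; others get +1 for less and -1 for more cisplatin killing; genes are active when the two siRNAs give the same sign, summing to ±2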
Meaning of the calls: active = both siRNAs shift cisplatin killing the same way; inactive = no consistent shift, or siRNA harmful alone

Knock-down of H4C8 gave: two-siRNA summed score (-2 to +2) = 0; mean protection from cisplatin (shift in death) (%) = -10.4. MGC13005 gave two-siRNA summed score (-2 to +2) = 0; mean protection from cisplatin (shift in death) (%) = 6.5. PLEKHA4 gave two-siRNA summed score (-2 to +2) = 0; mean protection from cisplatin (shift in death) (%) = -7.2. After knock-down of SLC23A1 the results were two-siRNA summed score (-2 to +2) = 0; mean protection from cisplatin (shift in death) (%) = 15. LOC400622 scored two-siRNA summed score (-2 to +2) = 0; mean protection from cisplatin (shift in death) (%) = 2.3. DCK scored two-siRNA summed score (-2 to +2) = -1; mean protection from cisplatin (shift in death) (%) = 7.2.

LOC388578 gave two-siRNA summed score (-2 to +2) = 0; mean protection from cisplatin (shift in death) (%) = 0.9. For ITIH3 the deposit lists two-siRNA summed score (-2 to +2) = 0; mean protection from cisplatin (shift in death) (%) = 11.4. Silencing of LOC389389 resulted in: two-siRNA summed score (-2 to +2) = 1; mean protection from cisplatin (shift in death) (%) = 16.4. Depletion of RASGEF1B came out at: two-siRNA summed score (-2 to +2) = 0; mean protection from cisplatin (shift in death) (%) = -2. LOC440983 scored two-siRNA summed score (-2 to +2) = 1; mean protection from cisplatin (shift in death) (%) = 25.6. Against AGO4, the entry reads two-siRNA summed score (-2 to +2) = 0; mean protection from cisplatin (shift in death) (%) = 15.1.

For CDO1 the deposit lists two-siRNA summed score (-2 to +2) = 0; mean protection from cisplatin (shift in death) (%) = -0.4. ARMCX5 gave two-siRNA summed score (-2 to +2) = 0; mean protection from cisplatin (shift in death) (%) = 3. LOC286297 showed two-siRNA summed score (-2 to +2) = 0; mean protection from cisplatin (shift in death) (%) = 25.4. Silencing of CROCC gave: two-siRNA summed score (-2 to +2) = 0; mean protection from cisplatin (shift in death) (%) = -7.8. TMEM39B scored two-siRNA summed score (-2 to +2) = 0; mean protection from cisplatin (shift in death) (%) = 3.8. Silencing of LIN52 gave: two-siRNA summed score (-2 to +2) = 1; mean protection from cisplatin (shift in death) (%) = 6.1.

Against DEGS1 the deposit lists two-siRNA summed score (-2 to +2) = -1; mean protection from cisplatin (shift in death) (%) = -14.9. Silencing of LOC442286 gave: two-siRNA summed score (-2 to +2) = 1; mean protection from cisplatin (shift in death) (%) = 9.6. Knock-down of NTS gave: two-siRNA summed score (-2 to +2) = 0; mean protection from cisplatin (shift in death) (%) = -2. Against LOC388494, the values are two-siRNA summed score (-2 to +2) = 0; mean protection from cisplatin (shift in death) (%) = 12.4. For TTC17, the entry reads two-siRNA summed score (-2 to +2) = 0; mean protection from cisplatin (shift in death) (%) = 1.6. SELENOM gave two-siRNA summed score (-2 to +2) = 1; mean protection from cisplatin (shift in death) (%) = 8.7.

Knock-down of VSTM2L came out at: two-siRNA summed score (-2 to +2) = -1; mean protection from cisplatin (shift in death) (%) = -8. With knock-down of LOC401128 the results were two-siRNA summed score (-2 to +2) = 0; mean protection from cisplatin (shift in death) (%) = -4.1. For MRPS14, the values are two-siRNA summed score (-2 to +2) = 1; mean protection from cisplatin (shift in death) (%) = 15.5. For PCOLCE2 the deposit lists two-siRNA summed score (-2 to +2) = 0; mean protection from cisplatin (shift in death) (%) = 2.9. After knock-down of LDLRAP1, the screen gave two-siRNA summed score (-2 to +2) = 0; mean protection from cisplatin (shift in death) (%) = -10.1. Depletion of CHP2 came out at: two-siRNA summed score (-2 to +2) = 0; mean protection from cisplatin (shift in death) (%) = -5.3.

For AREG the deposit lists two-siRNA summed score (-2 to +2) = 1; mean protection from cisplatin (shift in death) (%) = 20.

Reformatted: results already given.
| gene knocked down | two-siRNA summed score (-2 to +2) | mean protection from cisplatin (shift in death) (%) |
| --- | --- | --- |
| RASGEF1B | 0 | -2 |
| LOC440983 | 1 | 25.6 |
| AGO4 | 0 | 15.1 |
